This note sets out measurements from US20150139999A1.

The target of this experiment is B18-FL (Vaccinia virus strain Western Reserve B18 protein with a FLAG epitope at the C terminus, sec (Vaccinia virus strain Western Reserve) (UniProt P25213)). Nature of the experiment: immunoprecipitation with FLAG antibody, competition with [^32P]-IFN-α2-P.

Results are given in words; binding and its absence hold for the method and conditions named. Some binding calls cover weakened binding; strength is not graded here.

B1: human IFN-ε (ligand, UniProt Q86WN2 22-208, looked up)
chain: LDLKLIIFQQRQVNQESLKLLNKLQTLSIQQCLPHRKNFLLPQKSLSPQQYQKGHTLAILHEMLQQIFSLFRANISLDGWEENHTEKFLIQLHQQLEYLEALMGLEAEKLSGTLGSDNLRLQVKMYFRRIHDYLENQDYSTCAWAIVQVEISRCLFFVFSLTEKLSKQGRPLNDMKQELTTEFRSPR
In the case of B1, the binding entry was “binds”.
